Results: PubChem BioAssay AID1347426 (Functional Genomics Laboratory (NCATS/FGL), 2020)
Screen size: about 31,000 sequences; about 1,400 (4.5%) were called active.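 How the source made its calls: active means median seed-adjusted z-score above 1 or below -1; inactive means the rest.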 The list shows a part of the results.

Assay: Novel Modifiers of Survival Motor Neuron (SMN) Protein: Gene Identification via Genome-wide siRNA Screen;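 further: luminescence tracks full-length SMN protein made from the SMN2 reporter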
Conditions: HEK293T SMN2-luciferase reporter, siRNA knockdown, 72 h; actives lie on both sides
How it was run: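 HEK293T cells stably expressing an SMN2 splicing/cDNA-luciferase reporter were reverse-transfected with a druggable-genome siRNA library and read by luminescence at 72 hours; hits defined by MAD score above 1.0 or below -1.0.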

| Sequence | median seed-adjusted z-score |
| --- | --- |
| GCAUUUCUUGAGUUCGAUATT against CABP5 | inactive: 0.372 |
| CAAGAAAACCAGAAUGGAATT against SERPING1 | inactive: -0.244 |
| CCAAGUUGCCUAUACAGUUTT against SLC22A2 | inactive: -0.0161 |
| GAAAACCGCAGAUAAAGUATT against NFRKB | inactive: 0.787 |
| CAAUCCUGCUGACAUCCUATT against SLC5A2 | inactive: -0.0782 |
| GGGUUUUUAGAAUCUUCAATT against KCNA1 | inactive: -0.277 |
| CUAUACGAGUUUUAAUGAATT against HTR1E | inactive: 0.00535 |
| GGACUUAAAGGGUCAGUUATT against KIFC1 | inactive: 0.0417 |
| GGAUAGAUUUCAAUACCAUTT against GLIS3 | inactive: -0.00906 |
| GGACAUGAACCAUACGAAUTT against PRPF8 | active: -1.54 |
| GCAGAUACACUCAAAGUAATT against DDX27 | inactive: -0.131 |
| GGCACAUCAUUAACAUCAATT against DHRS11 | inactive: -0.476 |
| GCUCAUUGAGACUACAUCATT against EIF2AK1 | inactive: -0.546 |
| GGAUGUCACUGUUUCUGGATT against CLIC6 | inactive: -0.00828 |
| CAUCCCUUGUAAUUCACAATT against ZNF702 | inactive: 0.204 |
| GCUCCACAUUUGUUAGACATT against ZNF548 | inactive: -0.508 |
| CACAAUGAGUUAACUGAUATT against LILRB4 | inactive: -0.104 |
| GGCCGUUUGUCAUUCCCUUTT against CBFA2T3 | inactive: -0.135 |
| GGAUCUGCAUCGUCAUCGATT against TNS3 | inactive: 0.18 |
| CGAACGUAUGGGUGAAGCATT against CHRNA4 | inactive: 0.174 |
| CACCCAAAAAGAUGACAGATT against PSMD8 | inactive: 0.0952 |
| GAGCAUUGCUCAUCUCUUUTT against TRUB1 | inactive: 0.561 |

| Sequence | median seed-adjusted z-score |
| --- | --- |
| GGCUACAUUCAGAACUACATT against PPAP2B | inactive: 0 |
| CGUACAUUCCAUCAAGUAATT against CDON | inactive: 0.777 |
| AGAGUGACCUGAUUGAGCATT against CSNK2B | active: -1.62 |
| UGCUGAUCGUGGGAGAAAATT against AQP9 | inactive: -0.192 |
| GACUGCUACUUCCCUUUUATT against FARS2 | inactive: 0.587 |
| GAUCUGAUGCCGGAAUAUATT against ERMAP | inactive: -0.276 |
| UGAACUUGAUGAAGGAGAATT against S100A7L2 | inactive: 0.283 |
| GCAGUUUCGAAAUCAACGATT against TEX14 | inactive: -0.107 |
| CUAUGACCCUUACCCGUAUTT against FMOD | active: -1.32 |
| GCAACCCGAAGACAGGGAATT against ZNF226 | inactive: 0.437 |
| CUACCAGGCUUAAUAGGAATT against GFM2 | inactive: 0.26 |
| CCGGCUUAAUGUUGAUGGATT against PIP4K2A | inactive: 0.469 |
| GGUAUUAACUGGUCAGUAUTT against SLC17A4 | inactive: 0.262 |
| CUACAACUAUUGUGCCUAUTT against ETV5 | inactive: 0.0756 |
| GCACCAAGGCGAUUGUUCATT against ATP6V1B1 | inactive: 0.38 |
| ACACCCAGAUUAUGCUUUUTT against SPAG16 | inactive: -0.0252 |
| GCAUUUCACCAUUCAAACATT against PCSK9 | inactive: 0.146 |
| GCUGUGCGUUCUUCACAAATT against RAB17 | inactive: 0.473 |
| GGAUGUUAUCGCUAUUGAATT against GPRC5A | inactive: -0.56 |
| GGAUAUGAGUUUACUGGGATT against IL20RA | inactive: -0.646 |
| GGUGGUCGCUAGGUAUGAATT against WNT5A | inactive: 0.651 |
| GGCUAUUUCUACGAAAGUUTT against CDC7 | inactive: -0.236 |

In a second layout: results already given.
Sequence,median seed-adjusted z-score
CACCCAAAAAGAUGACAGATT against PSMD8,inactive: 0.0952
GAGCAUUGCUCAUCUCUUUTT against TRUB1,inactive: 0.561
GGCUACAUUCAGAACUACATT against PPAP2B,inactive: 0
CGUACAUUCCAUCAAGUAATT against CDON,inactive: 0.777
AGAGUGACCUGAUUGAGCATT against CSNK2B,active: -1.62
UGCUGAUCGUGGGAGAAAATT against AQP9,inactive: -0.192
GACUGCUACUUCCCUUUUATT against FARS2,inactive: 0.587
GAUCUGAUGCCGGAAUAUATT against ERMAP,inactive: -0.276
UGAACUUGAUGAAGGAGAATT against S100A7L2,inactive: 0.283
GCAGUUUCGAAAUCAACGATT against TEX14,inactive: -0.107
CUAUGACCCUUACCCGUAUTT against FMOD,active: -1.32
GCAACCCGAAGACAGGGAATT against ZNF226,inactive: 0.437
CUACCAGGCUUAAUAGGAATT against GFM2,inactive: 0.26
CCGGCUUAAUGUUGAUGGATT against PIP4K2A,inactive: 0.469
GGUAUUAACUGGUCAGUAUTT against SLC17A4,inactive: 0.262
CUACAACUAUUGUGCCUAUTT against ETV5,inactive: 0.0756
GCACCAAGGCGAUUGUUCATT against ATP6V1B1,inactive: 0.38
ACACCCAGAUUAUGCUUUUTT against SPAG16,inactive: -0.0252
GCAUUUCACCAUUCAAACATT against PCSK9,inactive: 0.146
GCUGUGCGUUCUUCACAAATT against RAB17,inactive: 0.473
GGAUGUUAUCGCUAUUGAATT against GPRC5A,inactive: -0.56
GGAUAUGAGUUUACUGGGATT against IL20RA,inactive: -0.646

Following part

| Sequence | median seed-adjusted z-score |
| --- | --- |
| UAUCAAGAAUGGAACUGAATT against NSDHL | inactive: 0.716 |
| GACUCAUCUUUAUACCCUUTT against CLGN | inactive: 0.18 |
| GCAUCAAGAUCAAUCGAGUTT against LNX1 | inactive: -0.463 |
| AGUACAACCUUGCUGUGAATT against ELA3A | inactive: -0.0465 |
| CCAGCAUCCUGACCAUCCATT against FLT4 | inactive: -0.861 |
| GAAUCGAGUUGAAAUCAAUTT against SPOP | inactive: 0.000304 |
| GCAUUAGUCUGACAGUACATT against MRGPRX3 | inactive: -0.175 |
| GAGAGGAUCUGACGAACUATT against PTBP2 | inactive: 0.138 |
| GCCUGUAUGUUUAUAACAATT against DRG2 | inactive: -0.175 |
| CAAGCUAUACUUGACCUUATT against PCBD2 | inactive: -0.0549 |
| GCAUUGCCUCUGUCGGUAATT against SLC13A1 | inactive: 0.183 |
| GCAUCAAGCAGGUUCACUATT against PLK3 | inactive: -0.116 |
| GUCUAUACUUGGAGUUAUATT against KCNJ1 | inactive: 0.0148 |
| GAAGCUACAUCGGCAGUAATT against CXADR | inactive: 0.872 |
| GAAGGAGUUUGGAAACACATT against APOC1 | inactive: 0 |
| CGCUCACCACCAACCGUAUTT against ATP2B3 | inactive: 0.0848 |
| GGAUGACUGUGACUUCCAATT against CST7 | inactive: 0.303 |
| CUGGAUCUGUAUCACCUAUTT against ITSN2 | inactive: 0.933 |
| GGAUGUGAAGGGUACAUAUTT against LIG3 | inactive: -0.0498 |
| GGACAAACCUUCCUCCAGATT against ZNF70 | inactive: -0.558 |
| GAGUCUUGCUUCCAAUAAATT against RPP25 | inactive: 0 |
| CGUGUAACGUGGUUUGUGATT against PABPC3 | inactive: -0.314 |

| Sequence | median seed-adjusted z-score |
| --- | --- |
| CCGACUAUCUCUAUCCGGATT against PLAU | inactive: 0.0765 |
| GAAAGACCAUGAAUGUAGUTT against ZNF232 | inactive: 0.39 |
| CAAGCCCAUUUGACACUGATT against FTSJ3 | inactive: 0.437 |
| GAACUAUGGGUUACCAGGATT against CFI | inactive: -0.596 |
| GAACUGACAAGCUUAGUAATT against SAP18 | active: 2.14 |
| AACUCGCAGUGGUUCAAUUTT against TXNDC8 | inactive: -0.281 |
| GGUCAACUAUCAUAGGAGATT against RARS | inactive: -0.268 |
| CUACUUUCGAGACUACUUUTT against DGAT2 | inactive: 0.195 |
| ACACAGCUGUUGUACCUCATT against MAP4 | active: 1.67 |
| CCAUCUUGUAUGACUCAAATT against ELMO1 | inactive: -0.00404 |
| GCCGCUGAUUGGGAAGGUATT against GAA | inactive: 0.756 |
| GGAUAUGGUUGGAUUAGCATT against GAD2 | inactive: 0.0588 |
| CCAUAAUGGUGUUGCUUAUTT against BOLL | inactive: -0.072 |
| GGUGUAAAAGUGAUUAUAATT against LCLAT1 | inactive: 0 |
| GGAAUACCAUAGUCCAGAUTT against MAP3K7IP3 | inactive: 0.267 |
| CGUUGUUUUUCGAUUGCAATT against ESD | inactive: -0.196 |
| CACCCUGAAUGGAUUGAGATT against ELAVL2 | inactive: -0.077 |
| GGUCCUACUGGGAAAUGUATT against ARL9 | inactive: 0.98 |
| CUCACGAAAUUGACCGCUATT against HLA-DMA | inactive: -0.00543 |
| CCUCAAAUCUUACGGAACATT against ZNF675 | inactive: -0.343 |
| GCAAGGUACUGCAACCACATT against RNASE12 | inactive: -0.16 |
| GCAUGGUAGCCGAAGAUUUTT against IGF1R | inactive: -0.358 |

| Sequence | median seed-adjusted z-score |
| --- | --- |
| GGACAACAGGUAUUCCGAUTT against KCNQ3 | inactive: 0.313 |
| GCCUUUCGAUGAAGAUUAUTT against CNTN4 | inactive: -0.407 |
| CGGCAGUAGCUGCAACCUATT against ATP6V1B1 | inactive: 0.38 |
| GUAUGAAGCUAUUGUAGAATT against MYCBP | inactive: -0.196 |
| CCUCAAUUCUGAUUAGUGUTT against GRM1 | inactive: 0.0376 |
| GCAGACACCUGAACUCUCATT against FRMPD2 | inactive: -0.329 |
| GGAAGACAGAGAAUCGAAATT against SEMA5A | inactive: -0.443 |
| GGACUAUUUUCAUCAACCATT against ATP8A1 | inactive: 0 |
| GAGUUAUGGUGCUAUAGGATT against PHEX | inactive: -0.0314 |
| CACCAUGAAUAAUCAACUUTT against TOM1L1 | inactive: -0.0722 |
| GGAGAUCACUUUGUCUCCCTT against TPSG1 | inactive: 0 |
| GUAACUUGUUUAUUAGACATT against DNA2 | inactive: 0.0284 |
| AUACAGAGGGUUUUGGAAATT against DPF3 | inactive: 0.242 |
| GCCUUUCCGAUACGUCCUATT against VARS | inactive: 0.237 |
| CAUUUGUGCUGAUCGAAGATT against CANX | inactive: 0.471 |
| GCCUUACCAAAGUAGUUGATT against TRIO | inactive: 0.42 |
| CUACAGCCUAUAUAUGAAATT against FCRL1 | inactive: -0.873 |
| GGUUAUACUCGGGCAGAGATT against NDUFS5 | active: -1.35 |
| CAAGAUCUCAAGAAAUUCATT against CDK2 | inactive: -0.347 |

Look-ups from the results shown:
Under median seed-adjusted z-score, GAAAACCGCAGAUAAAGUATT against NFRKB is listed with inactive: 0.787
Under median seed-adjusted z-score, GCCUGUAUGUUUAUAACAATT against DRG2 is listed with inactive: -0.175
